Values from PubChem BioAssay AID1259301 (Sanger Institute, 2017)
The deposit covers 160 reagents; below is an unselected part. 67 of all reagents (42%) count as active. 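Calls rest on synergy in any drug arm, not on siRNA-alone viability; rescreen tested four distinct siRNAs for each gene.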 The numbers tell different reagents against one gene apart. Not stated in the record: the amount of reagent, the time to read-out.

Assay: 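Synthetic lethal pairings of kinase siRNAs with targeted drugs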 (secondary rescreen of primary hits using four separate siRNAs per gene)
Cells: LS180 human colorectal cancer cells
Reagent: single siRNA against human genes
Conditions: anchor drug BYL719 at 1 µM, cetuximab at 5 µg/ml or trametinib at 10 nM, each against a DMSO vehicle arm
Measurement: 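Replicate mean of viability versus control pool 2 (non-targeting), and for every anchor drug a synergy score assessed against the drug by itself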
Reading the numbers: synergy score with BYL719 and synergy score with cetuximab and synergy score with trametinib: higher = stronger synergistic (synthetic lethal) killing; viability with siRNA alone (DMSO): higher = more cells survive
Rule for the call: 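Hit if synergy exceeds 0.10 with BYL719, cetuximab or trametinib, any single drug sufficing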
Calls: active = synergy with at least one drug; inactive = no synergy with any drug

Target gene,siRNA no.,synergy score with BYL719,synergy score with cetuximab,synergy score with trametinib,viability with siRNA alone (DMSO) (fraction of control),call
ACVR1,1,-0.0737,-0.03,0.104,1,active
ACVR1,2,-0.0316,0.0696,0.165,0.827,active
ACVR1,3,-0.155,-0.00675,0.228,0.968,active
ACVR1,4,-0.0808,-0.0459,0.225,0.766,active
CAMK2N1,1,0.0373,-0.046,0.174,0.854,active
CAMK2N1,2,0.261,-0.193,-0.211,0.689,active
CAMK2N1,3,0.0496,-0.0778,-0.0748,0.687,inactive
CAMK2N1,4,0.0849,0.0718,-0.0316,0.513,inactive
GRK5,1,-0.144,0.03,0.264,0.959,active
GRK5,2,0.053,0.27,0.297,1,active
GRK5,3,0.157,0.12,0.211,0.895,active
GRK5,4,0.0573,0.0899,0.0737,0.837,inactive
GTF2H1,1,-0.219,-0.103,-0.218,0.634,inactive
GTF2H1,2,-0.142,-0.0278,-0.0455,0.771,inactive
GTF2H1,3,-0.17,-0.0919,-0.106,0.643,inactive
GTF2H1,4,-0.0285,-0.14,0.00457,0.522,inactive
NR2F2,1,-0.068,-0.119,0.135,0.927,active
NR2F2,2,0.064,0.0916,-0.0107,0.903,inactive
NR2F2,3,-0.00996,0.201,0.113,1,active
NR2F2,4,-0.121,0.0911,0.175,0.655,active
BRAF,1,-0.138,-0.141,-0.215,0.719,inactive
BRAF,2,0.0427,-0.0485,-0.075,0.471,inactive
BRAF,3,-0.15,-0.0838,0.0603,0.402,inactive
BRAF,4,-0.0708,-0.0936,0.0181,0.544,inactive
AK2,1,-0.0717,0.139,0.107,0.643,active
AK2,2,-0.169,-0.136,-0.207,0.685,inactive
AK2,3,-0.177,-0.0267,0.15,0.896,active
AK2,4,-0.321,-0.0244,0.053,0.586,inactive
PFKFB3,1,-0.0915,-0.00866,0.0198,0.417,inactive
PFKFB3,2,0.0682,-0.0297,0.172,0.509,active
PFKFB3,3,-0.123,0.00616,-0.0179,0.659,inactive
PFKFB3,4,-0.0914,-0.0838,0.115,0.731,active
COASY,1,-0.157,-0.0833,-0.0939,0.409,inactive
COASY,2,0.00905,0.0813,0.123,0.557,active
COASY,3,-0.101,0.0533,0.0312,0.194,inactive
COASY,4,-0.0508,0.0171,-0.181,0.424,inactive
RPS6KA4,1,-0.0791,-0.0678,0.0331,0.733,inactive
RPS6KA4,2,-0.0895,-0.247,0.016,0.636,inactive
RPS6KA4,3,-0.0327,0.0421,-0.0631,0.561,inactive
RPS6KA4,4,0.13,0.0236,0.133,0.76,active
MAP3K8,1,0.0587,-0.0855,0.0638,0.916,inactive
MAP3K8,2,-0.0179,-0.184,-0.0334,0.297,inactive
MAP3K8,3,-0.0724,-0.142,-0.128,0.354,inactive
MAP3K8,4,-0.0194,0.0783,0.13,0.734,active
CRIM1,1,0.0593,-0.0557,-0.0282,0.649,inactive
CRIM1,2,-0.0347,-0.0683,0.0742,0.602,inactive
CRIM1,3,0.192,0.113,0.17,0.772,active
CRIM1,4,-0.00171,-0.135,0.108,0.516,active
MAPKAPK2,1,0.139,-0.14,0.0525,0.744,active
MAPKAPK2,2,-0.0183,-0.26,0.0169,0.684,inactive
MAPKAPK2,3,-0.0423,-0.0745,0.0259,0.482,inactive
MAPKAPK2,4,0.117,0.0113,0.211,0.794,active
CDK6,1,0.0552,-0.0577,0.0386,0.845,inactive
CDK6,2,-0.0184,0.0717,0.1,0.355,active
CDK6,3,0.143,0.0731,0.277,0.941,active
CDK6,4,-0.0388,0.00214,0.125,0.75,active
IKBKB,1,-0.19,-0.143,-0.0855,0.425,inactive
IKBKB,2,-0.0789,-0.0282,0.0029,0.662,inactive
IKBKB,3,-0.163,-0.00706,0.00927,0.761,inactive
IKBKB,4,-0.108,0.0739,-0.0437,0.486,inactive
NLK,1,-0.113,0.0459,0.0746,0.854,inactive
NLK,2,-0.088,-0.0278,0.0843,0.745,inactive
NLK,3,-0.249,-0.0589,-0.113,0.807,inactive
NLK,4,-0.173,-0.161,0.0419,0.725,inactive
SF3B1,1,-0.126,-0.0857,-0.0827,0.131,inactive
SF3B1,2,-0.0355,0.01,0.00283,0.227,inactive
SF3B1,3,-0.123,-0.167,-0.0324,0.481,inactive
SF3B1,4,-0.0519,0.00186,-0.132,0.277,inactive
MAPK4,1,-0.0448,0.0492,0.0767,0.679,inactive
MAPK4,2,0.0647,-0.0806,0.0654,0.625,inactive
MAPK4,3,-0.0745,-0.106,0.0459,0.609,inactive
MAPK4,4,-0.0668,-0.0251,-0.0332,0.452,inactive
MARK3,1,-0.24,-0.0879,-0.0195,0.691,inactive
MARK3,2,-0.0377,0.00161,0.143,0.833,active
MARK3,3,-0.217,-0.074,0.0388,0.727,inactive
MARK3,4,-0.163,-0.133,0.103,0.584,active

3 entries from above in another layout.
Target gene	siRNA no.	synergy score with BYL719	synergy score with cetuximab	synergy score with trametinib	viability with siRNA alone (DMSO) (fraction of control)	call
SF3B1	3	-0.123	-0.167	-0.0324	0.481	inactive
SF3B1	4	-0.0519	0.00186	-0.132	0.277	inactive
MAPK4	1	-0.0448	0.0492	0.0767	0.679	inactive
